Screen size: about 390,000 compounds; about 4,000 (1%) were called active. The inconclusive results got no clear call from the source; some entries with a clear call stand among them for comparison. Calls follow the shape of the dose curve; as a rule, active = well fitted inhibition curve with a large enough effect; inconclusive = small, poorly fitted or top-dose-only effect, or another doubt; inactive = no such curve, though single readings can be large or run the other way. Where the call is inconclusive, the potency comes from a doubtful curve fit.
target: DNA polymerase iota (Homo sapiens) (UniProt Q9UNA4); test: qHTS for Inhibitors of Polymerase Iota; conditions: Pol iota fluorescent replication assay, 10 min; series mostly up to 115 µM; activity, negative = inhibition: at the top concentration
How it was run: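 Fluorescent replication assay read twice, at 0 min and 10 min after adding 50 nM (final) substrate. Enzyme (10 nM) and compounds were first incubated 15 min at room temperature; enzyme-free buffer wells were negative controls.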
Potency is read from the fitted curve at half-maximal effect.

By UniProt entry, the sequences of proteins in these tests, tags left out. Where a name states a change or a piece, a line headed by the entry shows the natural chain unless it says otherwise.
UniProt Q9UNA4: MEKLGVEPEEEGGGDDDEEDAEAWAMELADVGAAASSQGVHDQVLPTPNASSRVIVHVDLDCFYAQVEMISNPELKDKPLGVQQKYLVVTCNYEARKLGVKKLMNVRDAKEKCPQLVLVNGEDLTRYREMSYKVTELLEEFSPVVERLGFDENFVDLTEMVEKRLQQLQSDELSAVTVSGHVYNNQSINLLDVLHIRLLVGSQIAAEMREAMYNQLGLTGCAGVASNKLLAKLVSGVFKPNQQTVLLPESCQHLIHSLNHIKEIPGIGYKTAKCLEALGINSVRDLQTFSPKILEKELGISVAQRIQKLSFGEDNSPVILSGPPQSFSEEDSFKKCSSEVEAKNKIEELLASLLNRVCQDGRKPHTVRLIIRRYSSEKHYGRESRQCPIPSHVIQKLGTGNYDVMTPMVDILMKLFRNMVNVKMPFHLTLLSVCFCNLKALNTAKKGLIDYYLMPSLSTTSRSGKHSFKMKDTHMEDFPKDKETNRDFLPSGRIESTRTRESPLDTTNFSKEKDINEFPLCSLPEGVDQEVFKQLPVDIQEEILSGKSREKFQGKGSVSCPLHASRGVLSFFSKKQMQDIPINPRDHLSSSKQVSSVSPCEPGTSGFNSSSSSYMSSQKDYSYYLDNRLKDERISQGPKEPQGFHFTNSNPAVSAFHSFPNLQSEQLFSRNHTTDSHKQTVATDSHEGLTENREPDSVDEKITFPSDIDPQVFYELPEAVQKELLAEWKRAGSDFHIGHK

Compound	Potency	activity, negative = inhibition
O=C(CCn1c(=O)c2sccc2n(CC(=O)NCc2ccco2)c1=O)NCc1ccccc1	inconclusive: 39.8 µM [inhibitor, single point]	–
C=C[C@H](CC(C)C)N(Cc1ccccc1)S(=O)(=O)N(Cc1ccccc1)[C@H](C=C)CC(C)C	–	inactive: 22.2%
O=C(CSc1ccc(-c2ccco2)nn1)Nc1ccc(F)cc1F	inconclusive: 15.8 µM [inhibitor, full curve, poor fit]	–
Cn1cc(CN2CCC(n3nccc3NC(=O)Cc3ccccc3)CC2)cn1	–	inactive: 15%
COc1ccc(C(=O)NCc2nnc(SCC(=O)N3CCc4ccccc43)o2)cc1OC	inconclusive: 14.1 µM [inhibitor, single point]	–
COC(=O)C1=C[C@@H](C(=O)OC)C2C3=C(C(=O)[C@@]2(C)NC(=O)c2ccccc2)[C@H](C)n2c(=O)n(C)c(=O)n2[C@@H]3C1 (stereo partly specified)	–	inactive: 19.1%
COc1ccc(S(=O)(=O)Nc2ccc(S(=O)(=O)Nc3ccc(F)cc3)cc2)cc1C	inconclusive: 12.6 µM [inhibitor, single point]	–
O=C(COc1ccc(Cl)cc1)Nc1cccc(S(=O)(=O)NC2=NCCCCC2)c1	–	inactive: 16.5%
COc1ccc(CCC(=O)N2CCN(c3ccccc3)CC2)cc1OC	–	inactive: -7.3%
CCN(CC)c1nc(C#N)nc(N2CCOCC2)n1	–	inactive: -8.17%
COc1cc(OC)c(-c2nn3c(-c4n[nH]c5c4CCC5)nnc3s2)cc1OC	inactive	–
Cc1csc2nc(COC(=O)c3ccccc3NC(=O)COc3ccccc3F)cc(=O)n12	–	inactive: -14.6%
O=C(CCN1C(=O)S/C(=C\c2ccc(F)cc2)C1=O)Nc1ccc(O)cc1C(=O)O	inconclusive: 7.94 µM [inhibitor, full curve, poor fit]	–
CCc1ccc(NC(=O)C2=CC(c3ccc(OC)cc3)=NS(=O)(=O)N2C)cc1	inconclusive: 15.8 µM [inhibitor, full curve, poor fit]	–
Cc1c(C(=O)N2CCCC2)oc2ccc(Br)cc12	inconclusive: 79.4 µM [inhibitor, single point]	–
COc1ccccc1COC(=O)N/C=C/c1ccco1	inconclusive: 50.1 µM [inhibitor, partial curve, poor fit]	–
COc1ccc(-c2[nH]c(-c3ccccc3)nc2SCC(=O)NCc2ccco2)cc1OC	inconclusive: 31.6 µM [inhibitor, single point]	–
O=C(C=Cc1ccccc1)c1ccc([N+](=O)[O-])cc1	inconclusive: 14.1 µM [inhibitor, partial curve]	–
Cc1nc2ccc(S(=O)(=O)CCC(=O)Nc3ccc(C)c(C)c3)cc2s1	inconclusive: 100 µM [inhibitor, partial curve, poor fit]	–
COc1ccccc1/C=C/C1=NC(=C\C=C/c2ccccc2)/C(=O)O1	inconclusive: 20 µM [inhibitor, partial curve, poor fit]	–
N/C(=N\N=C\c1cccc([N+](=O)[O-])c1)c1nonc1N	inconclusive: 50.1 µM [inhibitor, partial curve]	–

One compound at a time (already shown). Order of values: Potency | activity, negative = inhibition
`CCc1ccc(NC(=O)C2=CC(c3ccc(OC)cc3)=NS(=O)(=O)N2C)cc1` as listed: inconclusive: 15.8 µM [inhibitor, full curve, poor fit] | –
`COc1ccccc1/C=C/C1=NC(=C\C=C/c2ccccc2)/C(=O)O1` as listed: inconclusive: 20 µM [inhibitor, partial curve, poor fit] | –

Next part

Compound	Potency	activity, negative = inhibition
CCn1c(=O)c2c(O)cc(=O)oc2c2ccccc21	–	inactive: -7.81%
O=Cc1cn(CC(=O)N2CCCc3ccccc32)c2ccccc12	–	inactive: -11.1%
Cc1cc(C)n2nc(C(=O)OCC(=O)c3cc(C)n(C)c3C)nc2n1	inconclusive: 22.4 µM [inhibitor, full curve, poor fit]	–
COc1ccc(C2CC(c3ccc([N+](=O)[O-])cc3)=NN2C(C)=O)cc1 (stereo unspecified)	inconclusive: 89.1 µM [inhibitor, partial curve, poor fit]	–
O=C(COC(=O)CCc1ccc(S(=O)(=O)N2CCOCC2)cc1)Nc1ccccc1[N+](=O)[O-]	inconclusive: 89.1 µM [inhibitor, single point]	–
CSc1nc(SCC(N)=O)c2c3c(sc2n1)CN(C)CC3	inconclusive: 7.08 µM [inhibitor, full curve, poor fit]	–
Cc1ccc(C)c(N2CCN(S(=O)(=O)c3ccc4[nH]c(=O)ccc4c3)CC2)c1	inconclusive: 79.4 µM [inhibitor, single point]	–
Cc1cc(C(=O)OC(C)C(=O)Nc2cccc(S(=O)(=O)N3CCOCC3)c2)c(C)o1 (stereo unspecified)	inconclusive: 100 µM [inhibitor, single point]	–
Cc1ccc(-c2cc(C(=O)N/N=C/c3c(C)nn(-c4ccccc4)c3C)n[nH]2)s1	inconclusive: 22.4 µM [inhibitor, partial curve, poor fit]	–
Cc1ccc(S(=O)(=O)N[C@H](C(=O)OCC(=O)NC(=O)NCc2ccco2)C(C)C)cc1	inconclusive: 35.5 µM [inhibitor, partial curve]	–
S=c1[nH]nc(COc2ccccc2)n1/N=C/C=C/c1ccccc1	–	inactive: 18.3%
Cc1cccc(NC(=O)Cn2nnc(C(=O)Nc3ccc(F)c(Cl)c3)c2N)c1	inconclusive: 56.2 µM [inhibitor, partial curve, poor fit]	–
COc1ccc(C2Nc3ccccc3C(=O)N2c2ccc(F)cc2)cc1COc1ccc(NC(C)=O)cc1 (stereo unspecified)	–	inactive: 9.52%
c1ccc(C[C@H]2CNCCN2CCc2cccc3ccccc23)cc1	inconclusive: 39.8 µM [inhibitor, single point]	–
COc1cc(/C=N/NC(=O)CC2C(=O)NN=C2C)ccc1O (stereo unspecified)	–	inactive: 30.1%
CCCN(CCC)S(=O)(=O)c1ccc(NC(=O)Cc2cccs2)cc1	inconclusive: 39.8 µM [inhibitor, partial curve, poor fit]	–
COc1ccc(NS(=O)(=O)c2ccc(C)c(C(=O)O)c2)cc1	inconclusive: 56.2 µM [inhibitor, partial curve, poor fit]	–
Cc1cc(C)nc(NC(=O)CSc2nn(-c3ccccc3)c(=S)s2)n1	inconclusive: 31.6 µM [inhibitor, partial curve, poor fit]	–
CC1=CC(c2ccc(Cl)cc2)n2nc(NS(=O)(=O)c3ccc(C)cc3)nc2N1 (stereo unspecified)	inconclusive: 10 µM [inhibitor, partial curve]	–
CC[N+](CC)(CC)c1ccc(/C=C/c2ccnc3ccccc23)cc1	inconclusive: 79.4 µM [inhibitor, partial curve]	–
